Data as given in PubChem BioAssay AID488835 (Broad Institute, 2010).
About 140 (10%) of roughly 1,400 compounds were called active.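 Rule for the calls: active = Half-maximal inhibitory dose from the fit at or below ten times the top valid tested dose; inconclusive = Invalid fit, or flat curve showing 30 to 70% inhibition; inactive = the rest.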 This is a selection; strong and weak results do not stand in their true shares. Measured potencies and affinities stand elsewhere. Where a SMILES comes first, the peptide text is derived from it. The star is where a group is joined. Boc = CC(C)(C)OC(=O)*

Sequences of proteins named here, by UniProt entry; tags and fusion partners are left off. Residues count along the entry.
UniProt Q9H3R0, 1-420 limits assumed: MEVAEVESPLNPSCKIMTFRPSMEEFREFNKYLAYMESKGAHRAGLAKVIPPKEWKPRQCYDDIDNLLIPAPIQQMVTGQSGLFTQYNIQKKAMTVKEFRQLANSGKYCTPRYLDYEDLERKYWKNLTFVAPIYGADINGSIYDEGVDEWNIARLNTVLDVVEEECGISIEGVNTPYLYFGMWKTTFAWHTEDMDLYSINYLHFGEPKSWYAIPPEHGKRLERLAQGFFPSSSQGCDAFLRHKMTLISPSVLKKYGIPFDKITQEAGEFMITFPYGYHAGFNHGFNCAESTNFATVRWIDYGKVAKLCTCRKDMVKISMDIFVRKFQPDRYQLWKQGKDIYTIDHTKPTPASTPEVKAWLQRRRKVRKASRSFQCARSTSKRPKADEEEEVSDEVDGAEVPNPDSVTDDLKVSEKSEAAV

Target: Lysine-specific demethylase 4C (Homo sapiens) (UniProt Q9H3R0)
Assay: GASC-1 (JMJD2C) histone demethylase inhibitors, dose response, biochemical, DELFIA europium, cherry-picked samples (AID 488835);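 note: signal is the H3K9me2 demethylation product detected by a dimethyl-specific antibody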
Settings: GST-JMJD2C(1-420), H3K9me3 demethylation; at 6 µM (top of the series) unless noted

Activity change, negative = inhibition, inactive:
O=C(CSc1nc(-c2ccco2)cc(C(F)(F)F)n1)Nc1ccc(C(=O)N2CCCCC2)cc1 -0.0352%, Cc1ccc(S(=O)(=O)Nc2ccc3c(c2)C(=O)N([C@H](C)CO)C[C@H](C)[C@@H](CN(C)Cc2ccc(-c4ccccc4)cc2)O3)cc1 7.33%, CC(=O)c1c(Nc2ccccc2)sc(C(=O)c2ccccc2)c1C -1.31%, COc1ccc(-c2cc3c(=O)n(CC(=O)NCc4cccnc4)nc(C)n3n2)cc1 0.732% [at 1.6 µM], COc1ccc(C(=O)N2CCC(C(=O)NCc3ccccn3)CC2)cc1 3.25%, COc1cc(-c2nnco2)cc(OC)c1OC 5.49%, COc1ccccc1OCCOCCn1cnc2ccccc2c1=O -6.98%, C[C@H](CO)N1C[C@H](C)[C@@H](CN(C)Cc2ccc(Cl)c(Cl)c2)Oc2c(NS(=O)(=O)c3cn(C)cn3)cccc2C1=O 4.5%, COc1cccc(C(c2c(C)[nH]n(-c3ccccc3)c2=O)c2c(C)[nH]n(-c3ccccc3)c2=O)c1O -11.1%, O=C(COC(=O)c1cccc(S(=O)(=O)NCc2ccccc2)c1)Nc1ccccc1OC(F)F -0.0575%, CCC(C)C(NC(=O)OC(C)(C)C)C(=O)NC(C(=O)N1CCCC1C(N)=O)C(C)CC (stereo not drawn) (Boc-Ile-Ile-Pro-NH2; configuration not given here) 8.44%, CCOc1cc(NC(=O)c2ccco2)c(OCC)cc1NC(=O)c1ccco1 -6.78%, Cc1ccccc1C(=O)OCCCN=C1NS(=O)(=O)c2ccccc21 8.73%, COC(=O)[C@]1(Cc2ccccc2)N[C@H](CN(C)C(=O)Nc2ccccc2)[C@@H]2C(=O)N(C)C(=O)[C@@H]21 -3.93%, CCNC(=O)C/C(C)=N/NC(=O)C12CC3CC(CC(C3)C1)C2 -5.28%, CCN(CC)S(=O)(=O)c1ccc(N2CCOCC2)c(NC(=O)c2ccc3c(c2)OCCO3)c1 4.55%, Cc1c(C(=O)Nc2ccc3c(c2)OCO3)sc2ncn(CC(=O)N3CC(C)CC(C)C3)c(=O)c12 (stereo not given) 12.4%, CN1C(=O)Cc2cc(S(=O)(=O)NCCc3ccc(Cl)cc3)ccc21 -0.124%, COc1cc(NS(=O)(=O)c2ccc(NC(=O)c3ccc(C)o3)cc2)nc(OC)n1 7.65%, Cc1ccc(CNC(=O)CCC2CCCN(Cc3ccc4cccc(F)c4n3)C2)o1 (stereo not given) 6.45%, COc1ccc(OC)c(Nc2nc(-c3cccs3)cs2)c1 -4.95%, C#CCOCCOCCOCCNc1nc(N2CCN(C(=O)[C@H](CCCCN)n3cc(CN)nn3)CC2)nc(N2CCN(C(=O)[C@H](CCC(=O)O)n3cc([C@@H](N)CCSC)nn3)CC2)n1 -9.04%, COCCNC(=S)N1CCN(C)CC1 -0.745%, COc1ccc(C(=O)NCc2nnc(SCC(=O)N3CCc4ccccc43)o2)cc1OC 2.47%, c1cc2c(cc1C1CCCCC1)c1c3n2CCCNC3CCC1 (stereo not given) -0.182%, CC(C)c1ccc(NC2CCCN(C(=O)CCN3CCCCC3=O)C2)cc1 (stereo not given) 16.1%, CC1(C)CC(=O)C2=C(C1)OC(N)=C(C#N)C2C#Cc1ccccc1 (stereo not given) 8.11%, COc1ccc(CCNC(=O)c2cccc(NS(=O)(=O)c3ccccc3F)c2)cc1OC -3.93%, COc1ccc(C(C(C(=O)c2ccco2)N2CCOCC2)N2CCOCC2)cc1 (stereo not given) 5.71%, COc1ccc(/C=C(/C(=O)NCc2ccccc2)c2ccccc2)cc1 5.38%, CCOC(=O)c1[nH]c(CSc2nnnn2-c2ccccc2C)c(C(=O)OCC)c1C 1.98%, O=C(NCC1CCCO1)Nc1ccccc1 (stereo not given) -2.2%, O=C(CC1C[C@H](C(=O)N2CCCCC2)[C@@]2(CCc3ccccc3)c3[nH]c4ccccc4c3CCN2C1=O)NCCC1=CCCCC1 (stereo not given in full) -4.94%, Nc1ncnc2c1ncn2[C@@H]1O[C@H](CNCC#Cc2ccccc2)[C@@H](O)[C@H]1O 2.42%, O=C(O)CSc1nnc(COc2cccc3cccnc23)n1-c1cccc(C(F)(F)F)c1 -0.453%, Cc1nnc(N2C(=O)C(=O)/C(=C(/O)c3ccc4c(c3)CC(C)O4)C2c2ccccc2F)s1 (stereo not given) 8.44%, CCN(C[C@H]1N[C@@](C)(C(=O)OC)[C@H]2C(=O)N(C)C(=O)[C@@H]12)C(=O)Nc1ccc(C)cc1 0.134%, O=C1C=C(NCc2ccc3c(c2)OCO3)CC(c2ccccc2)C1 (stereo not given) -0.693%, C=CCNCCOc1cccc(Br)c1 2.08%, CC(C)CCSc1cc(NCCO)c([N+](=O)[O-])c2nonc12 1.05%, Cc1noc(C)c1C(=O)Nc1ccc2ccccc2c1 3.03%, Cc1ccc(S(=O)(=O)N2CCOCC2)cc1C(=O)NNC(=O)c1ccoc1C 6.61%, Cc1cc(Cl)c(S(=O)(=O)Nc2ccc3c(c2)OCCO3)cc1OCC(N)=O -0.843%, C[C@H](CO)N1C[C@H](C)[C@@H](CN(C)C(=O)Nc2ccc3c(c2)OCO3)Oc2ccc(NC(=O)Cn3cnnn3)cc2C1=O 2.66%, COc1cccc(/C=C/C(=O)OCC(=O)NCc2ccc(Cl)cc2)c1 0.388%, COc1ccc(NC(=O)Nc2ccc3c(c2)C(=O)N([C@H](C)CO)C[C@H](C)[C@@H](CN(C)S(=O)(=O)c2cccs2)O3)cc1 8.17%, COc1ccc(/C=N/NC(=O)c2cc(C)on2)c2ccccc12 -1.79%, COc1cc2c(cc1OC)C1=C(C#N)COCN1CC2 0.413%, CCCC(=O)Nc1nc2c(c(=O)[nH]1)CCCC2 -0.233%, O=C(NC1(O)C(=O)c2ccccc2C1=O)c1c(Cl)cccc1Cl 6.07%, CCN(CC)C(=O)N1CCc2ccccc2C1CN1C(=O)c2ccccc2C1=O (stereo not given) -0.118%, CCCCCCc1cc2cc(-c3nnc(-c4ccccc4)o3)c(=O)oc2cc1O -1.96%, CCOC(=O)c1nc(C)n(-c2cc(Cl)ccc2Cl)n1 6.96%, O=C(NCC(=O)N1CCCCC1)c1sc2ccccc2c1Cl 0.7%, COC(=O)C1=C(C)N(CCc2cc(OC)c(OC)c(OC)c2)C(=O)N[C@H]1c1cccs1 11.2%, CCN(CCNS(=O)(=O)c1ccc2c(c1)oc(=O)n2C)c1ccccc1 1.56%, COc1cccc(-n2nnc3c(=O)n(Cc4ccccc4F)cnc32)c1 4.46%, CN(C)S(=O)(=O)c1ccc(NC(=S)NC(=O)C2CCC2)cc1 10.1%, CN(C)S(=O)(=O)c1ccc(N2CCCC2)c(C(=O)Nc2nc3ccc(F)cc3s2)c1 0.98%, N=c1n(CCCOc2ccccc2Cl)c2ccccc2n1CC(N)=O 9.23%, C[C@H](CO)N1C[C@H](C)[C@@H](CN(C)S(=O)(=O)c2cn(C)cn2)Oc2ccc(NC(=O)C3CC3)cc2C1=O 5.52%, CCCCC(=O)NC(NC(=S)N1CCOCC1)C(Cl)(Cl)Cl (stereo not given) 2.74%, C[C@H](CO)N1C[C@H](C)[C@@H](CN(C)S(=O)(=O)c2ccc(F)cc2)Oc2ccc(NS(=O)(=O)c3cccs3)cc2C1=O -0.685%, CC1CN(C)C(C)CC1NCc1ccc2c(c1)OCO2 (stereo not given) -4.65%, CN(C)c1cccc(C(=O)Nc2cc(C(F)(F)F)ccc2-n2cnc3ccccc32)c1 8.67%, CC(=O)NS(=O)(=O)c1ccc(NC(=O)CSc2ccc(Cl)cc2)cc1 -0.152%, O=C(COC(=O)C1(c2ccc(Cl)cc2)CCCC1)NC1CCS(=O)(=O)C1 (stereo not given) 6.75%, Cc1cccc2sc(NNC(=O)c3cc(=O)c4ccccc4o3)nc12 -7.12%, CC(=O)N1CCN(c2ccc([N+](=O)[O-])c(-n3nc(C)cc3C)c2)CC1 3.15%, Cn1c(=O)[nH]c(=O)c2[nH]c(NCCCN3CCOCC3)nc21 -6.83%, Cc1cccc(Oc2nc(CN3CCOCC3)nc3sc4c(c23)CCCC4)c1 2.57%, COc1ccc(CN2CCCCC2C)c(C)c1C (stereo not given) 2.27%, COc1ccccc1C(c1nnnn1Cc1ccccc1)N1CCN(C2CCCC2)CC1 (stereo not given) -4.86%, CCOc1cccc(SCc2noc(C(=O)NC(C)C)c2C(=O)O)c1 2.92%, O=c1oc2ccccc2c2c1C(c1ccc(Cl)cc1)Nc1ccc3ccccc3c1-2 (stereo not given) -0.0613%, O=C(Nc1ccccc1)N(CCc1nc2ccccc2[nH]1)C1CCCC1 -1.41%, CC1SC(=NC(=O)C(C)N2C(=O)c3ccccc3C2=O)NC1=O (stereo not given) 1.54%, CC(C)(C)OC(=O)CNC(=O)c1[nH]cnc1C(=O)N[C@@H](CCCCN)C(=O)OC(C)(C)C 1.96%, COc1cc(C#N)c(N=C(SCC#N)N2CCOCC2)cc1OC 0.963%, C#CCOCCOCCOCCNc1nc(N2CCN(C(=O)[C@H](CCC(=O)O)n3cc([C@@H](N)[C@H](C)CC)nn3)CC2)nc(N2CCN(C(=O)[C@H](CCCCN)n3cc([C@@H](N)CC(N)=O)nn3)CC2)n1 -0.561%, CCN(C[C@H]1N[C@@](C)(C(=O)OC)[C@H]2C(=O)N(Cc3ccccc3)C(=O)[C@@H]12)C(=O)Nc1ccc(Cl)cc1 2.49%, Cc1cccc(OCc2nnc(SCC(=O)Nc3cccc(C(=O)N4CCOCC4)c3)o2)c1C 5.38%, COC(=O)c1cc(C#N)c(OC)nc1C 3.36%, O=C(NCC(c1ccco1)N1CCN(c2ccc(F)cc2)CC1)OCc1ccccc1 (stereo not given) 6.88%, Cc1ccc(-n2nnc3c(SCC(=O)NCC4CCCO4)ncnc32)cc1 (stereo not given) 8.21%, Cc1noc(C)c1NC(=O)N(C)C[C@H]1Oc2ccc(NC(=O)C3CCCCC3)cc2C(=O)N([C@H](C)CO)C[C@@H]1C 3.94%, CC(C)(C)C1CCc2[nH]c3ccccc3c(=O)c2C1 (stereo not given) -8.54%, O=S(=O)(Nc1ncnc2sc3c(c12)CCC3)c1ccc(Cl)s1 -2.05%, O=C(Cn1cnc2ccccc2c1=O)Nc1ccc2c(c1)CCC2 1.54%, COc1ccc(N(Cc2cc3cccc(C)c3[nH]c2=O)S(C)(=O)=O)cc1 0.542%, c1csc(-c2nc3nc4ccccc4nc3n2Cc2ccc3c(c2)OCO3)c1 6.94%, Cc1ccc(NC(=O)CSc2cccc[n+]2[O-])c([N+](=O)[O-])c1 2.02%, Cc1nnsc1C(=O)NNS(=O)(=O)c1ccccc1 10.9%, CCN(C(=O)c1sc(N)c(C#N)c1C)C1CCCCC1 4.45%, Cc1noc(C)c1NC(=O)Nc1ccc2c(c1)C(=O)N([C@H](C)CO)C[C@H](C)[C@@H](CN(C)C(=O)NC1CCCCC1)O2 1.97%
